Measured values as given in PMC12097129.
Results are given in words; binding and its absence hold for the method and conditions named. Binding seen in cells or lysates may run through a third protein. Some entries that bind do so weakly or less than the wild type.

By UniProt entry, the sequences of proteins in these tests, tags left out.
UniProt Q9ULU4: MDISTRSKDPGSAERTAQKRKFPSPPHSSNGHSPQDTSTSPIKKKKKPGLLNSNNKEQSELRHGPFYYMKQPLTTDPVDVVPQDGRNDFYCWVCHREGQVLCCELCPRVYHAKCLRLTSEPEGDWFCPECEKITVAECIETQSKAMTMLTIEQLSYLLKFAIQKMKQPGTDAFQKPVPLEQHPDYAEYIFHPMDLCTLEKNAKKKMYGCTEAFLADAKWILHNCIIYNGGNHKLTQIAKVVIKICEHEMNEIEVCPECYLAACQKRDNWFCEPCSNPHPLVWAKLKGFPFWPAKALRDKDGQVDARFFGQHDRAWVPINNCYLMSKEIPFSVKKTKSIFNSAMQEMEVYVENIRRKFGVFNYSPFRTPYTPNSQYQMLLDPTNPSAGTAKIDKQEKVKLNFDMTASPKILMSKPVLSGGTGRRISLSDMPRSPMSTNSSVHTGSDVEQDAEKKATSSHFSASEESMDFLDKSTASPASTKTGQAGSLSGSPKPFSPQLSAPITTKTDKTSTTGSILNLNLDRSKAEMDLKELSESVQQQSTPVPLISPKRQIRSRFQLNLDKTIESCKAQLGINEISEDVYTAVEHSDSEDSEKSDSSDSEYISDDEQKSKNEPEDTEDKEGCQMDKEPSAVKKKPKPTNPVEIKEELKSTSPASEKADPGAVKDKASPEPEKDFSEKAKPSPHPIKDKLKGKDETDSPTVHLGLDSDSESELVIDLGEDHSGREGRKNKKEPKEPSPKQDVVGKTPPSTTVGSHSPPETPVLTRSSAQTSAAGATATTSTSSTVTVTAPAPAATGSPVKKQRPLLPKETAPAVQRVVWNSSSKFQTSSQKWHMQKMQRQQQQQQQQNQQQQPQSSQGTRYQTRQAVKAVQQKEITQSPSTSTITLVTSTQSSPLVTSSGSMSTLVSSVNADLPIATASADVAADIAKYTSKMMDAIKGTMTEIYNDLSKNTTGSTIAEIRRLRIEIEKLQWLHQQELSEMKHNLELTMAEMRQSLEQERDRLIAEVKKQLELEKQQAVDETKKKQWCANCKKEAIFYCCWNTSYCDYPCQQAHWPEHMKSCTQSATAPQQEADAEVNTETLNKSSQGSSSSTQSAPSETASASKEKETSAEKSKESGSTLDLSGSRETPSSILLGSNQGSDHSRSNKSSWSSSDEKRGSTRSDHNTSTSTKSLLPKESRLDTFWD
UniProt Q61188: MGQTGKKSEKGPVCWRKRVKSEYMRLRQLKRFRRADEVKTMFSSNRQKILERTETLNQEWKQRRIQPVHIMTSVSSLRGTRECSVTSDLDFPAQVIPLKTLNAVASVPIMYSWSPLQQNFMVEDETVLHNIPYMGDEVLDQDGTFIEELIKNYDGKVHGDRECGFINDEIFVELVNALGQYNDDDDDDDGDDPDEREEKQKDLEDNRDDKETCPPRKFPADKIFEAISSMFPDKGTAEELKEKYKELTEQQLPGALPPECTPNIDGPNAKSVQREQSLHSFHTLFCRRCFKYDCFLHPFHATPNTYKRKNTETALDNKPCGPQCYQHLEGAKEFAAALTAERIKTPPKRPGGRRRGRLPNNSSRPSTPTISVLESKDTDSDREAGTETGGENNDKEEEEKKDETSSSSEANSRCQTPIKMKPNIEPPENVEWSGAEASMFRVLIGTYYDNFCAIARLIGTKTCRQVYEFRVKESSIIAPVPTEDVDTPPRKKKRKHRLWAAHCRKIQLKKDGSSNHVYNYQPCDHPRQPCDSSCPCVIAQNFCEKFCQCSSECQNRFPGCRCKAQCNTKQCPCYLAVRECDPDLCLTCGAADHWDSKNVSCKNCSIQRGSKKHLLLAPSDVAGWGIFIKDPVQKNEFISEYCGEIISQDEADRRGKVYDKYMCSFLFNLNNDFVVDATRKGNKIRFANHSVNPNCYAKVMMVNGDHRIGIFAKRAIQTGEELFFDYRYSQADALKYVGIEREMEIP
UniProt Q80U70: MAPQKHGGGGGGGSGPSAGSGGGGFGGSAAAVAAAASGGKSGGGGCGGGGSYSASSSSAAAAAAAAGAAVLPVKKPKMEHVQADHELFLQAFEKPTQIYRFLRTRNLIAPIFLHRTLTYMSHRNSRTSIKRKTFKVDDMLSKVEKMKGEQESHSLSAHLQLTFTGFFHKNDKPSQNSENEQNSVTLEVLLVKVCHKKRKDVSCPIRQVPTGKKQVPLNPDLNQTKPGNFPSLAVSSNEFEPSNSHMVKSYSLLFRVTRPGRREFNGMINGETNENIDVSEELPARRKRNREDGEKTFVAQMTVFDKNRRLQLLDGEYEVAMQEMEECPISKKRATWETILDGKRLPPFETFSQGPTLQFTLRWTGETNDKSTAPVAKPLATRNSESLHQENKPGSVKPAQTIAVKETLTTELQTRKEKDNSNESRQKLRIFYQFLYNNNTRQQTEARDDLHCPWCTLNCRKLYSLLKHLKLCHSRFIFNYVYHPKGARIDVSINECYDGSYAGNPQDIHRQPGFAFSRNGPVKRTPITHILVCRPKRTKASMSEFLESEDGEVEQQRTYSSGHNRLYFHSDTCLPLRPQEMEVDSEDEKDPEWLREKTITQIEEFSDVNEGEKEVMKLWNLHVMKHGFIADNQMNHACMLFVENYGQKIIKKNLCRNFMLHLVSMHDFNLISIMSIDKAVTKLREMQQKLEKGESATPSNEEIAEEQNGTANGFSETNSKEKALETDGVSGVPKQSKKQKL

Target: HA-tagged full-length human RACK7 protein (human) (UniProt Q9ULU4)
Assay: pull-down; purified HA-RACK7 incubated with dialysed nuclear extract of WT mouse forebrain for 6 h at 4 °C in 20 mM Tris-HCl pH 7.3, 150 mM KCl, 0.1% NP-40; captured on anti-HA beads; immunoblot; only the target purified

Row | Substance | binding
1 | Enhancer of Zeste Homolog 2 (EZH2), endogenous mouse (from UniProt Q61188 1-746) | binds
2 | Suppressor of Zeste 12 homolog (SUZ12), endogenous mouse (from UniProt Q80U70 1-741) | binds
